{"source": "patent US11584744B2", "about": "(UNIVERSITY OF WASHINGTON, priority 2017, dated 2023)", "experiment": "Cytotoxicity testing on mammalian cells (AlamarBlue, 48 hours)", "assay_type": "cell-based", "conditions": "human", "description": "Cytotoxicity testing on mammalian cells: Compounds were assayed for cytotoxicity against CRL-8155 (human lymphoblasts) and HepG2 cells (human hepatocellular carcinoma). Cells were exposed to serial dilutions of compounds for 48 hours and toxicity was quantified using AlamarBlue (ThermoFisher Scientific, Waltham, Mass.). Assays were performed in quadruplicate and EC50 values were calculated with non-linear regression methods using software by the Collaborative Drug Database (Burlingame, Calif. www.collaborativedrug.com)", "note": "Read-outs that look alike come from different tables or passages of the source."}
{"smiles": "O=C(O)c1cn(C2CC2)c2cc(N3CCNCC3)c(F)cc2c1=O", "note": "[CIP, ciprofloxacin]", "values": [{"measurement": "CC50 at 48 h", "setting": "CRL-8155 cells (human lymphoblasts), read-out: Mamm. cells (CRL8155) CC50", "result": "> 33", "unit": "mg/L"}, {"measurement": "CC50 at 48 h", "setting": "HepG2 cells (human hepatocellular carcinoma), read-out: Mamm. cells (HepG2) CC50", "result": "> 33", "unit": "mg/L"}]}
